Test results as given in paper PMC6430795.
No constants are given. Whether binding was seen depends on the method and setting. Binding seen in cells or lysates may run through a third protein. A yes stands for co-enrichment or nearness to the bait. Other partners may have been found. No binding means not detected with the bait.

B1: ITM2C, native (protein, UniProt Q91VK4 1-269)
chain: MVKISFQPAVAGIKADKADKAAASGPASASAPAAEILLTPAREERPPRHRSRKGGSVGGVCYLSMGMVVLLMGLVFASVYIYRYFFLAQLARDNFFHCGVLYEDSLSSQIRTRLELEEDVKIYLEENYERINVPVPQFGGGDPADIIHDFQRGLTAYHDISLDKCYVIELNTTIVLPPRNFWELLMNVKRGTYLPQTYIIQEEMVVTEHVRDKEALGSFIYHLCNGKDTYRLRRRSTRRRINKRGGKNCNAIRHFENTFVVETLICGVV
B2: NSG2, native (protein, UniProt P47759 1-171)
chain: MVKLNSNPGEKGAKPPSVEDGFQTVPLITPLEVNHLQLAAPEKVIVKTRTEYQPEQRNKGKFRVPKIAEFTVTILVSLALAFLACIVFLVVYKAFTYDHSCPEGFVYKHKRCIPASLDAYYSSQDPSSRSRFYTVISHYSVAKQSTARAIGPWLSAAAVIHEPKPPKTQGH
B3: calsyntenin-1 (CSTN-1), native (protein, UniProt Q9EPL2 29-979)
chain: ARVNKHKPWLEPTYHGIVTENDNTVLLDPPLIALDKDSPLRFAESFEVTVTKEGEICGFKIHGQNVPFDAVVVDKSTGEGIIRSKEKLDCELQKDYTFTIQAYDCGKGPDGTGVKKSHKATVHIQVNDVNEYAPVFKEKSYKAAVVEGKQHSSILRVEAVDADCSPQFSQICSYEILTPDVPFTVDKDGYIKNTEKLNYGKEHQYKLTVTAYDCGKKRATEDVLVKISVKPTCSPGWQGWSSRIEYEPGTGALAVFPSIHLETCDEPVASVQATVELETSHIGKGCDRDTYSEKSLHRLCGAAAGTSELLPSPSSSFNWTVGLPTDNGHDSDQVFEFNGTQAVRIPDGVVTLDPKEPFTISVWMRHGPFGRKKETILCSSDKTDMNRHHYSLYVHGCRLVFLLRQDPSEEKKYRPAEFHWKLNQVCDEDWHHFVLNVEVPSVTLYVDGIPHEPFSVTEDYPLHPTKIETQLVVGACWQEYSGVESGNETEPATMASAGGDLHMTQFFRGNLAGLTVRSGKLADKKVIDCLYTCKEGLDLQVPEDANRGVQIQASSSQAVLTLEGDNVGELDKAMQHISYLNSRQFPTPGIRRLKITSTVKCFNEAACIEVPPVEGYVMVLQPEEPKISLSGVHHFARAASEFESAEGISLFPELRIISTITREVEPEADGSEDPTVQESLVSEEIVHDLDTCEVTVEGDELNAEQESLEVDVTRLQQKGIEASHSDLGVVFTGVETMASYEEVLHLLRYRNWHTRSLLDRKFKLICSELNGRYLSNEFKVEVNVIHTANPVEHANHMAAQPQFVHPEHRSFVDLSGHNLANPHPFAVVPSTATVVIVVCVSFLVFMIILGVFRIRAAHQRTMRDQDTGKENEMDWDDSALTITVNPMETYEDQHSSEEEEEEEEEEESEDGEEEEDITSAESESSEEEEGGPGDGQNATRQLEWDDSTLSY
B4: calsyntenin-2 (CSTN-2), native (protein, UniProt Q9ER65 21-966)
chain: GGSGDGGDSRRRRLLVAKVNKHKPWIETSYHGVITENNDTVILDPPLVALDKDAPVPFAGEICAFKIHGQELPFEAVVLNKTSGEGRLRAKSPIDCELQKEYTFIIQAYDCGAGPREAAWKKSHKAVVHIQVKDVNEFAPTFKEPAYKAIVTEGKIYDSILQVEAIDEDCSPQYSQICNYEIVTTDVPFAIDRNGNIRNTEKLSYDKQHQYEILVTAYDCGQKPAAQDTLVQVDVKPVCKPGWQDWTKRIEYQPGSGSMPLFPSIHLETCDGAVSSLQVTAELQTNYIGKGCDRETYSEKSLQKLCGASSGIIDLLPSPSAATNWTAGLLVDSSEMIFKFDGRQGAKIPDGIVPKNLTDQFTITMWMKHGPSPGVRAEKETILCNSDKTEMNRHHYALYVHNCRLVFLLRKDFDQADTFRPAEFHWKLDQICDKEWHYYVINVEFPVVTLYMDGATYEPYLVTNDWPIHPSHIAMQLTVGACWQGGEVAKPRFAQFFHGSLASLTIRPGKMESQKVISCLQACKEGLDINSLESLGRGIKYHFNPSQSILVMEGDDIGNINRALQKVSYINSRQFPTAGVRRLRLSSKVQCFGEDVCISIPDVDAYIMVLQAIEPQITLQGTERFWRPAAQFESARGVTLFPDIKIVSTFAKTEASGDMRATGTAPKSAVLEEMLHNLDFCDILVLGGDLDPRQECLELNHSELHQRHLDATNSTAGYSIYGVGSMNRYEQVLHHLRYRNWHPTSLETRRFRIKCSELNGRYTSNEFNLEVSVLHEVRVSDKEHVNHLIVQPPFLQSVHHPETRSSIQRSSVVPSIATVVIIISVCMLVFVVAMGVYRVRIAHQHFIQETEAAKEAEMDWDDSALTITVNPMEKHEGPGNGEDETTEVEEEEEAEEGSSSSSSGSDDSEEEEEEGMGRVRHGQSGTSSQSPERSTWNTAGVINIWK
B5: calsyntenin-3 (CSTN-3), native (protein, UniProt Q99JH7 20-956)
chain: NKANKHKPWIEAEYQGIVMENDNTVLLNPPLFALDKDAPLRYAGEICGFRLHGSGVPFEAVILDKATGEGLIRAKEPVDCEAQKEHTFTIQAYDCGEGPDGTNTKKSHKATVHVRVNDVNEFAPVFVERLYRAAVTEGKLYDRILRVEAIDGDCSPQYSQICYYEILTPNTPFLIDNDGNIENTEKLQYSGEKLYKFTVTAYDCGKKRAADDAEVEIQVKPTCKPSWQGWNKRIEYAPGAGSLALFPGIRLETCDEPLWNIQATIELQTSHVAKGCDRDNYSERALRKLCGAATGEVDLLPMPGPNANWTAGLSVHYSQDSSLIYWFNGTQAVQVPLGGPAGLGSGPQDGFSDHFTLSFWMKHSVTPSKGKKEEETIVCNTVQNEDGYSHYSLTVHGCRIAFLYWPLLESARPVKFLWKLEQVCDDEWHHYALNLEFPTVTLYTDGISFDPALIHDNGLIHPPRREPALMIGACWTEEKNKEKKGGENSTDTASGDPLLIHHYFHGYLAGFSVRSGRLESREVIECLYACREGLDYRDFESLGKGMKVHVNPSQSLLTLEGDDVETFNHALQHVAYMNTLRFATPGVRPLRLTTAVKCFSEESCVSIPEVEGYVVVLQPDAPQILLSGTAHFARPAVDFEGPEGVPLFPDLQITCSISHQVEAKADESWQGTVTDTRMSDEIVHNLDGCEISLVGDDLDPERESLLLDMASLQQRGLELTNTSAYLTIAGVETITVYEEILRQARYQLRHGAALYARKFRLSCSEMNGRYSSNEFIVEVNVLHSMNRVAHPSHVLSSQQFLHRGHQPPPEMAGHSLASSHRNSMVPSAATLIIVVCVGFLVLMVILGLVRIHSLHRRVSGTGGPSGASTDPKDPDLFWDDSALTIIVNPMESYQNQQTCVAGVAGGQQEEEDSSDSEAADSPSSDERRIIESPPHRY
B6: JIP-1, native (protein, UniProt Q9WVI9 1-707)
chain: MAERESGLGGGAASPPAASPFLGLHIASPPNFRLTHDISLEEFEDEDLSEITDECGISLQCKDTLSLRPPRAGLLSAGSSGSAGSRLQAEMLQMDLIDAAGDTPGAEDDEEEEDDELAAQRPGVGPPKAESNQDPAPRSQGQGPGTGSGDTYRPKRPTTLNLFPQVPRSQDTLNNNSLGKKHSWQDRVSRSSSPLKTGEQTPPHEHICLSDELPPQGSPVPTQDRGTSTDSPCRRSAATQMAPPSGPPATAPGGRGHSHRDRIHYQADVRLEATEEIYLTPVQRPPDPAEPTSTFMPPTESRMSVSSDPDPAAYSVTAGRPHPSISEEDEGFDCLSSPERAEPPGGGWRGSLGEPPPPPRASLSSDTSALSYDSVKYTLVVDEHAQLELVSLRPCFGDYSDESDSATVYDNCASASSPYESAIGEEYEEAPQPRPPTCLSEDSTPDEPDVHFSKKFLNVFMSGRSRSSSAESFGLFSCVINGEEHEQTHRAIFRFVPRHEDELELEVDDPLLVELQAEDYWYEAYNMRTGARGVFPAYYAIEVTKEPEHMAALAKNSDWIDQFRVKFLGSVQVPYHKGNDVLCAAMQKIATTRRLTVHFNPPSSCVLEISVRGVKIGVKADDALEAKGNKCSHFFQLKNISFCGYHPKNNKYFGFITKHPADHRFACHVFVSEDSTKALAESVGRAFQQFYKQFVEYTCPTEDIYLE
B7: JIP-3, native (protein, UniProt Q9ESN9 1-1337)
chain: MMEIQMDEGGGVVVYQDDYCSGSVMSERVSGLAGSIYREFERLIHCYDEEVVKELMPLVVNVLENLDSVLSENQEHEVELELLREDNEQLLTQYEREKALRKQAEEKFIEFEDALEQEKKELQIQVEHYEFQTRQLELKAKNYADQISRLEERESEMKKEYNALHQRHTEMIQTYVEHIERSKMQQVGGSGQTESSLPGRSRKERPTSLNVFPLADGMVRAQMGGKLVPAGDHWHLSDLGQLQSSSSYQCPNDEMSESGQSSAAATPSTTGTKSNTPTSSVPSAAVTPLNESLQPLGDYVSVTKNNKQAREKRNSRNMEVQVTQEMRNVSIGMGSSDEWSDVQDIIDSTPELDVCPETRLERTGSSPTQGIVNKAFGINTDSLYHELSTAGSEVIGDVDEGADLLGEFSVRDDFFGMGKEVGNLLLENSQLLETKNALNVVKNDLIAKVDQLSGEQEVLKGELEAAKQAKVKLENRIKELEEELKRVKSEAVTARREPREEVEDVSSYLCTELDKIPMAQRRRFTRVEMARVLMERNQYKERLMELQEAVRWTEMIRASREHPSVQEKKKSTIWQFFSRLFSSSSSPPPAKRSYPSVNIHYKSPTAAGFSQRRSHALCQISAGSRPLEFFPDDDCTSSARREQKREQYRQVREHVRNDDGRLQACGWSLPAKYKQLSPNGGQEDTRMKNVPVPVYCRPLVEKDPSTKLWCAAGVNLSGWKPHEEDSSNGPKPVPGRDPLTCDREGEGEPKSTHPSPEKKKAKETPEADATSSRVWILTSTLTTSKVVIIDANQPGTIVDQFTVCNAHVLCISSIPAASDSDYPPGEMFLDSDVNPEDSGADGVLAGITLVGCATRCNVPRSNCSSRGDTPVLDKGQGDVATTANGKVNPSQSTEEATEATEVPDPGPSESEATTVRPGPLTEHVFTDPAPTPSSSTQPASENGSESNGTIVQPQVEPSGELSTTTSSAAPTMWLGAQNGWLYVHSAVANWKKCLHSIKLKDSVLSLVHVKGRVLVALADGTLAIFHRGEDGQWDLSNYHLMDLGHPHHSIRCMAVVNDRVWCGYKNKVHVIQPKTMQIEKSFDAHPRRESQVRQLAWIGDGVWVSIRLDSTLRLYHAHTHQHLQDVDIEPYVSKMLGTGKLGFSFVRITALLIAGNRLWVGTGNGVVISIPLTETVVLHRGQLLGLRANKTSPTSGEGTRPGGIIHVYGDDSSDKAASSFIPYCSMAQAQLCFHGHRDAVKFFVSVPGNVLATLNGSVLDSPSEGPGPAAPAADAEGQKLKNALVLSGGEGYIDFRIGDGEDDETEECAGDVNQTKPSLSKAERSHIIVWQVSYTPE

Target: β-amyloid precursor protein (APP), native (mouse (endogenous in brain))
Assay: affinity purification with mass spectrometry; multi-epitope affinity purifications with immobilised anti-APP, anti-AJAP-1 and anti-PIANP antibodies from mouse brain membranes solubilised with CL-47 (mild) and CL-91 (intermediate stringency); knock-out brains and IgG as controls

| Binder | binding |
| --- | --- |
| B1 | binds |
| B2 | binds |
| B3 | binds |
| B4 | binds |
| B5 | binds |
| B6 | no binding |
| B7 | no binding |
